{"source": "PubChem BioAssay AID504774 – Drosophila RNAi Screening Center, 2011", "aim": "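Knock-downs that shift viability of MMS-exposed cells relative to untreated ones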 (primary screen)", "cells": "Drosophila Kc167 cells", "reagents": "long dsRNA against Drosophila genes, about 0.25 µg dsRNA per well", "duration": "about 6 days: 3 days knock-down, then 3 days with or without MMS", "treatment": "methyl methanesulphonate 0.004% (w/v) for 3 days after knock-down", "detection": "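Viability in wells given MMS, read as ATP luminescence, normalised by quantiles plate by plate and averaged across replicates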", "direction": "mean viability with MMS: higher = more surviving cells after MMS", "note": "The deposit covers about 23,000 reagents; below is a random part of those with a known target gene and a result. 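Values are quantile-normalised luminescence on an arbitrary scale; higher means more cells surviving MMS.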 Names joined by + are all predicted targets of the reagent. Further read-outs or replicates are left out here."}
{"target gene":"egr (eiger)","amplicon":"DRSC06233","mean viability with MMS":3.65e6}
{"target gene":"Mmp1 (Matrix metalloproteinase 1)","amplicon":"DRSC04493","mean viability with MMS":3.35e6}
{"target gene":"CG17028","amplicon":"DRSC10239","mean viability with MMS":3.59e6}
{"target gene":"CG12483","amplicon":"DRSC08278","mean viability with MMS":3.79e6}
{"target gene":"CG17974","amplicon":"DRSC04299","mean viability with MMS":3.72e6}
{"target gene":"CG32161","amplicon":"DRSC22128","mean viability with MMS":3.50e6}
{"target gene":"Rrp47 (Ribosomal RNA processing 47)","amplicon":"DRSC20124","mean viability with MMS":3.63e6}
{"target gene":"FucTC (alpha1,3-fucosyltransferase C)","amplicon":"DRSC20966","mean viability with MMS":2.56e6}
{"target gene":"mbo (members only)","amplicon":"DRSC16123","mean viability with MMS":3.59e6}
{"target gene":"CG16837","amplicon":"DRSC04283","mean viability with MMS":3.56e6}
{"target gene":"CG14085","amplicon":"DRSC10089","mean viability with MMS":3.52e6}
{"target gene":"CanA-14F (Calcineurin A at 14F)","amplicon":"DRSC20211","mean viability with MMS":3.49e6}
{"target gene":"CanA-14F (Calcineurin A at 14F)","amplicon":"DRSC23296","mean viability with MMS":3.66e6}
{"target gene":"c12.1","amplicon":"DRSC18750","mean viability with MMS":3.46e6}
{"target gene":"CG31270 (retired record)","amplicon":"DRSC22252","mean viability with MMS":3.45e6}
{"target gene":"CG12224","amplicon":"DRSC14480","mean viability with MMS":3.43e6}
{"target gene":"CG42268","amplicon":"DRSC10171","mean viability with MMS":3.49e6}
{"target gene":"CG42268","amplicon":"DRSC10702","mean viability with MMS":3.78e6}
{"target gene":"CG42268","amplicon":"DRSC21797","mean viability with MMS":3.35e6}
{"target gene":"Or83c (Odorant receptor 83c)","amplicon":"DRSC12359","mean viability with MMS":3.73e6}
{"target gene":"PpD3 (Protein phosphatase D3)","amplicon":"DRSC16796","mean viability with MMS":3.64e6}
{"target gene":"Orc2 (Origin recognition complex subunit 2)","amplicon":"DRSC16776","mean viability with MMS":3.61e6}

A run of entries of the results above, as a working copy:
{"target gene":"CanA-14F (Calcineurin A at 14F)","amplicon":"DRSC23296","mean viability with MMS":3.66e6}
{"target gene":"c12.1","amplicon":"DRSC18750","mean viability with MMS":3.46e6}

More results follow.
{"target gene":"Sid (Stress induced DNase)","amplicon":"DRSC16588","mean viability with MMS":3.69e6}
{"target gene":"PpD5 (Protein phosphatase D5)","amplicon":"DRSC04641","mean viability with MMS":3.43e6}
{"target gene":"PpD5 (Protein phosphatase D5)","amplicon":"DRSC23312","mean viability with MMS":3.54e6}
{"target gene":"CG34429","amplicon":"DRSC10120","mean viability with MMS":3.55e6}
{"target gene":"CG1316","amplicon":"DRSC08304","mean viability with MMS":4.32e6}
{"target gene":"CG15531","amplicon":"DRSC15068","mean viability with MMS":3.55e6}
{"target gene":"B4","amplicon":"DRSC01868","mean viability with MMS":3.44e6}
{"target gene":"B4","amplicon":"DRSC03175","mean viability with MMS":3.69e6}
{"target gene":"CrebA (Cyclic-AMP response element binding protein A)","amplicon":"DRSC11122","mean viability with MMS":3.56e6}
{"target gene":"CR32011 + CR32010 + PlexB + 1 more","amplicon":"DRSC21664","mean viability with MMS":3.54e6}
{"target gene":"CG13930","amplicon":"DRSC08399","mean viability with MMS":3.53e6}
{"target gene":"Spred (Sprouty-related protein with EVH-1 domain)","amplicon":"DRSC05976","mean viability with MMS":3.63e6}
{"target gene":"GC (gamma-glutamyl carboxylase)","amplicon":"DRSC08396","mean viability with MMS":3.50e6}
